Data taken from article PMC6938514.
These are yes or no findings as the source states them, for the method shown.

Biological target: 6xHis-KFL_(PYK2) (UniProt Q14289)
Experiment: MST; 6xHis-tagged protein labelled with HisTag Ni-NTA dye, 0.05 uM; the same protein serially diluted from 200 uM; 20 mM HEPES pH 7.5, 150 mM NaCl, 1 mM DTT, 0.05% Tween-20; 25 °C; both purified

binding: no binding (tested: 200 μM)
Substance: 6xHis-KFL_(PYK2) (from UniProt Q14289 790-839) (domain or fragment)
